Measured values taken from PubChem BioAssay AID206 (DTP/NCI, 2004).
The list is a part of this screen's results and no random one: it gathers tests that were run many times, whatever their T/C, doses with no T/C, and many T/C values between a quarter and a half above the control. Other doses and runs of a compound stand elsewhere. T/C gives the treated animals as a percentage of the vehicle group. Schedule codes are those of the source, taken here to give the interval after Q, in days (D) or hours (H), and the number of doses after X. Some values lie below zero, which means that the treated tumours became smaller. Some entries were tested several times; the results are listed from low to high. Some T/C values are followed by the survivors on the day toxicity was checked, most often the fifth; without a count, all were alive then. Some entries give survivors of the animals treated and no T/C: the source holds a T/C of zero for them, seemingly a mark for toxic or unscored doses. Counts of survivors are from the toxicity check (mostly the fifth day) where no day follows; animals may have died later.

System: nude mice, HT29 intrarenal xenograft, tumor weight T/C
Assay: NCI In Vivo Anticancer Drug Screen. Data for tumor model HT29;CX-1 Human Adenocarcinoma (MER+) (intrarenal inoculation) in NU/NU Swiss (nude) mice
Details: T/C endpoint: mean tumor weight change, higher T/C = larger tumour
How it was run: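 Endpoint measured as tumor size or survival; ratio reported is treated group over vehicle controls.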

[1] = dose: 100.0 mg/kg/injection, schedule: Q01DX010 (sc), vehicle: saline

Compound: N=C1CCCS1
- survivor count (dose: 150.0 mg/kg/injection, schedule: Q04DX004 (sc), vehicle: saline): 0 of 6 on day 15
- survivor count (dose: 300.0 mg/kg/injection, schedule: Q04DX004 (sc), vehicle: saline): 0 of 6 on day 15
- survivor count (dose: 600.0 mg/kg/injection, schedule: Q04DX004 (sc), vehicle: saline): 0 of 6 on day 15
- survivor count (dose: 1200.0 mg/kg/injection, schedule: Q04DX004 (sc), vehicle: saline): 0 of 6 on day 15

Compound: CNC=O
- T/C (dose: 200.0 mg/kg/injection, schedule: Q01DX010 (sc), vehicle: saline, evaluated on day 11): 12, 21, 53, 57 % of control
- T/C (dose: 400.0 mg/kg/injection, schedule: Q01DX010 (sc), vehicle: saline, evaluated on day 11): -19, -16, 3, 25 % of control
- T/C (dose: 800.0 mg/kg/injection, schedule: Q01DX010 (sc), vehicle: saline, evaluated on day 11): -49 [5 of 6 alive on day 11], -35, 5 % of control [4 of 6 alive on day 11]
- survivor count (dose: 800.0 mg/kg/injection, schedule: Q01DX010 (sc), vehicle: saline): 0 of 6 on day 11
- T/C (dose: 1600.0 mg/kg/injection, schedule: Q01DX010 (sc), vehicle: saline, evaluated on day 11): -51 [4 of 6 alive on day 11] and -16 % of control [5 of 6 alive on day 11]
- survivor count (dose: 1600.0 mg/kg/injection, schedule: Q01DX010 (sc), vehicle: saline): 0 of 6 on day 11

Compound: Cc1cc(=O)n2c3c(c4c(cc13)c(CN(C)C)cc(=O)n4C)OC2
- survivor count (dose: 300.0 mg/kg/injection, schedule: Q04DX004 (sc), vehicle: saline with Tween-80): 1 of 6 on day 15
- survivor count (dose: 600.0 mg/kg/injection, schedule: Q04DX004 (sc), vehicle: saline with Tween-80): 1 of 6 on day 15

Compound: COc1cc(Cc2nccc3cc(OC)c(OC)cc23)c(C(C)=O)c(OC)c1
- survivor count (dose: 320.0 mg/kg/injection, schedule: Q01DX010 (sc), vehicle: saline): 0 of 3 on day 11

Compound: COCC(O)Cn1ccnc1[N+](=O)[O-] (stereo unspecified)
- T/C (dose: 2400.0 mg/kg/injection, schedule: Q04DX004 (sc), vehicle: suspension in saline, evaluated on day 15): 138 % of control [4 of 6 alive on day 15]

Compound: CN(C)C(=O)c1cccc(COc2ccc(N3C(N)=NC(N)=NC3(C)C)cc2Cl)c1
- survivor count (dose: 12.5 mg/kg/injection, schedule: Q01DX010 (sc), vehicle: saline): 1 of 3 on day 11
- survivor count (dose: 25.0 mg/kg/injection, schedule: Q01DX010 (sc), vehicle: saline): 1 of 3 on day 11
- T/C (dose: 25.0 mg/kg/injection, schedule: Q01DX010 (sc), vehicle: water, evaluated on day 11): 132 % of control [2 of 3 alive on day 11]
- survivor count (dose: 50.0 mg/kg/injection, schedule: Q01DX010 (sc), vehicle: saline): 0 of 3 on day 11
- survivor count (dose: 50.0 mg/kg/injection, schedule: Q01DX010 (sc), vehicle: water): 0 of 3 on day 11
- survivor count [1]: 0 of 3 on day 11
- survivor count (dose: 100.0 mg/kg/injection, schedule: Q01DX010 (sc), vehicle: water): 0 of 3 on day 11

Compound: CC1CN1C(=O)NCCCCCCNC(=O)N1CC1C (stereo unspecified)
- T/C (dose: 10.0 mg/kg/injection, schedule: Q04DX004 (sc), vehicle: Klucel (hydroxypropylcellulose) (HPC), evaluated on day 15): 131 % of control
- survivor count (dose: 40.0 mg/kg/injection, schedule: Q04DX004 (sc), vehicle: Klucel (hydroxypropylcellulose) (HPC)): 0 of 6 on day 15
- survivor count (dose: 60.0 mg/kg/injection, schedule: Q04DX004 (sc), vehicle: Klucel (hydroxypropylcellulose) (HPC)): 0 of 6 on day 15
- survivor count (dose: 80.0 mg/kg/injection, schedule: Q04DX004 (sc), vehicle: Klucel (hydroxypropylcellulose) (HPC)): 1 of 6 on day 15

Compound: O=NNc1ccccn1
- T/C (dose: 0.5 mg/kg/injection, schedule: Q01DX010 (sc), vehicle: saline, evaluated on day 11): 131 % of control [2 of 2 alive on day 11]
- T/C (dose: 1.0 mg/kg/injection, schedule: Q01DX010 (sc), vehicle: saline, evaluated on day 11): 132 % of control
- T/C (dose: 2.0 mg/kg/injection, schedule: Q01DX010 (sc), vehicle: saline, evaluated on day 11): 125 % of control
- T/C (dose: 16.0 mg/kg/injection, schedule: Q01DX010 (sc), vehicle: saline, evaluated on day 11): 146 % of control
- survivor count (dose: 64.0 mg/kg/injection, schedule: Q01DX010 (sc), vehicle: saline): 1 of 6 on day 11
- survivor count (dose: 128.0 mg/kg/injection, schedule: Q01DX010 (sc), vehicle: saline): 0 of 6 on day 11

Compound: [Cl][Mn][Cl]
- T/C (dose: 37.5 mg/kg/injection, schedule: Q04DX004 (sc), vehicle: saline, evaluated on day 15): 149 % of control

Compound: COP12(OCCO1)SC(C(F)(F)F)=C(C(F)(F)F)S2
- survivor count (dose: 1000.0 mg/kg/injection, schedule: Q04DX004 (sc), vehicle: saline with Tween-80): 3 of 6 on day 15

Compound: NNC(=S)N/N=C/c1ccccn1
- survivor count (dose: 120.0 mg/kg/injection, schedule: Q04DX004 (sc), vehicle: saline with Tween-80): 0 of 6 on day 15

Compound: CNc1n[n+](-c2ccccc2)no1
- survivor count (dose: 150.0 mg/kg/injection, schedule: Q04DX004 (sc), vehicle: water): 0 of 6 on day 15
- survivor count (dose: 300.0 mg/kg/injection, schedule: Q04DX004 (sc), vehicle: water): 0 of 6 on day 15

Compound: CN(C)CCCNc1c2ccccc2nc2cccc([N+](=O)[O-])c12
- T/C (dose: 0.75 mg/kg/injection, schedule: Q04DX004 (sc), vehicle: saline, evaluated on day 15): 145 % of control
- survivor count (dose: 1.5 mg/kg/injection, schedule: Q04DX004 (sc), vehicle: saline): 0 of 6 on day 15
- survivor count (dose: 3.0 mg/kg/injection, schedule: Q04DX004 (sc), vehicle: saline): 0 of 6 on day 15

Compound: O=[N+]([O-])/C=C\c1ccc2c(c1)OCO2
- T/C (dose: 200.0 mg/kg/injection, schedule: Q01DX010 (sc), vehicle: Klucel (hydroxypropylcellulose) (HPC), evaluated on day 11): 134 % of control

Compound: O=c1nc(-c2ccco2)sc(=O)[nH]1
- T/C (dose: 150.0 mg/kg/injection, schedule: Q04DX004 (sc), vehicle: Klucel (hydroxypropylcellulose) (HPC), evaluated on day 15): 125 % of control [5 of 6 alive on day 15]
- survivor count (dose: 1200.0 mg/kg/injection, schedule: Q04DX004 (sc), vehicle: Klucel (hydroxypropylcellulose) (HPC)): 2 of 6 on day 15

Compound: Cc1cc2nc3c(=O)[nH]c(=O)nc-3n(CC(O)C(O)C(O)C(O)CO)c2cc1C (stereo unspecified)
- T/C (dose: 300.0 mg/kg/injection, schedule: Q04DX004 (sc), vehicle: saline with Tween-80, evaluated on day 15): 129 % of control

Compound: COc1cc2cc[n+](C)c(Cc3ccccc3)c2cc1OC
- survivor count (dose: 150.0 mg/kg/injection, schedule: Q04DX004 (sc), vehicle: Klucel (hydroxypropylcellulose) (HPC)): 0 of 6 on day 15

Compound: O=C(CC(=O)C(F)(F)F)c1csc2ccccc12
- T/C (dose: 1200.0 mg/kg/injection, schedule: Q04DX004 (sc), vehicle: Klucel (hydroxypropylcellulose) (HPC), evaluated on day 15): 128 % of control

Compound: COc1cccc2c1C(=O)c1c(O)c3c(c(O)c1C2=O)C[C@@](O)(/C(C)=N/NC(=O)c1ccccc1)C[C@@H]3OC1CC(N)C(O)C(C)O1 (stereo partly specified)
- T/C (dose: 9.38 mg/kg/injection, schedule: Q04DX004 (sc), vehicle: water, evaluated on day 15): 140 % of control
- survivor count (dose: 75.0 mg/kg/injection, schedule: Q04DX004 (sc), vehicle: water): 2 of 6 on day 15

Compound: c1ccc2c(NCCCCCCNc3c4ccccc4nc4ccccc34)c3ccccc3nc2c1
- T/C (dose: 5.0 mg/kg/injection, schedule: Q01DX010 (sc), vehicle: Klucel (hydroxypropylcellulose) (HPC), evaluated on day 11): 49, 62, 64, 74 % of control
- T/C (dose: 10.0 mg/kg/injection, schedule: Q01DX010 (sc), vehicle: Klucel (hydroxypropylcellulose) (HPC), evaluated on day 11): 28, 51 [2 of 2 alive on day 11], 58, 69 [2 of 2 alive on day 11], 84, 144 % of control
- T/C (dose: 20.0 mg/kg/injection, schedule: Q01DX010 (sc), vehicle: Klucel (hydroxypropylcellulose) (HPC), evaluated on day 11): 3 [2 of 3 alive on day 11], 54, 74 % of control
- survivor count (dose: 20.0 mg/kg/injection, schedule: Q01DX010 (sc), vehicle: Klucel (hydroxypropylcellulose) (HPC)): 1 of 3 on day 11
- T/C (dose: 40.0 mg/kg/injection, schedule: Q01DX010 (sc), vehicle: Klucel (hydroxypropylcellulose) (HPC), evaluated on day 11): 10 % of control [2 of 2 alive on day 11]
- survivor count (dose: 40.0 mg/kg/injection, schedule: Q01DX010 (sc), vehicle: Klucel (hydroxypropylcellulose) (HPC)): 0 of 3 on day 11
- survivor count (dose: 80.0 mg/kg/injection, schedule: Q01DX010 (sc), vehicle: Klucel (hydroxypropylcellulose) (HPC)): 0 of 3 on day 11

Compound: COc1cc(C)c2c(c1C=O)Oc1c(c(C)c(O)c3c1C(O)OC3=O)OC2=O (stereo unspecified)
- survivor count [1]: 0 of 3 on day 11
- survivor count (dose: 400.0 mg/kg/injection, schedule: Q01DX010 (sc), vehicle: saline): 0 of 3 on day 11
